Reference: patent US5721211A, “Compositions and methods for treating small cell and nonsmall cell lung cancers” (The George Washington University, priority 1993, dated 1998)
At least one peptide structure holds a part that was inferred or is arguable (an end, a ring closure or a residue).

What was measured:
[1] = tested on: NCI-N417 (SCLC lung cancer cells); assay: soft agar colonization, NCI-N417; type: cell-based; conditions: 100 nM
Protocol: (§1) The effects of THNα1 on the growth of lung cancer cell lines was studied. Single viable cells were plated in soft agar as previously described (Mahmoud, S., et al., Life Sci., 44:367 (1989)), and, after two weeks, the colonies were stained with 0.1% p-iodonitrotetrazolium violet.
(§2) The experimental conditions of Example 3 were repeated with NCI-H720 (lung carcinoid cancer cells) and NCI-N417 (SCLC lung cancer cells) cell lines. Colonies were counted as before.

lung cancer cells = assay: in vitro colonization of lung cancer cells (general statement); type: cell-based
Protocol: Candidate anti-lung cancer peptides and antibodies may be screened in vitro in a soft agar colonization assay such as that described by Mahmoud, S., et al., Life Sci., 44:367 (1989) which is herein incorporated by reference. In general, single viable lung cancer cells are plated in soft agar. After an appropriate growth period, such as 14 days, cell colonies may be stained with an appropriate cytochemical stain, and the stained cells viewed microscopically. Cytochemical stains are well known to those skilled in the art of histology.

[2] = tested on: NCI-H720 (lung carcinoid cancer cells); assay: soft agar colonization, NCI-H720; type: cell-based; conditions: 100 nM
Protocol: as §1, §2

[3] = tested on: SCLC and NSCLC cell lines; assay: adenylate cyclase activity / cAMP production in lung cancer cells; type: cell-based
[4] = tested on: NCI-H157 (Squamous Cell Carcinoma); assay: soft agar colonization, NCI-H157; type: cell-based
VIP receptors = assay: inhibition of specific binding of 125I-labeled VIP to lung cancer cell plasma membranes; conditions: EPLC-65H plasma membranes

CC[C@H](C)[C@H](NC(=O)[C@H](CO)NC(=O)[C@H](CC(N)=O)NC(=O)[C@H](CC(C)C)NC(=O)[C@H](Cc1ccc(O)cc1)NC(=O)[C@H](CCCCN)NC(=O)[C@H](CCCCN)NC(=O)[C@@H](NC(=O)[C@H](C)NC(=O)[C@H](CCSC)NC(=O)[C@H](CCC(N)=O)NC(=O)[C@H](CCCCN)NC(=O)[C@H](CCCNC(=N)N)NC(=O)[C@H](CC(C)C)NC(=O)[C@H](CCCNC(=N)N)NC(=O)[C@@H](NC(=O)[C@H](Cc1ccc(O)cc1)NC(=O)[C@H](CC(N)=O)NC(=O)[C@H](CC(=O)O)NC(=O)[C@@H](NC(=O)[C@H](Cc1ccccc1)NC(=O)[C@@H](NC(=O)[C@H](C)NC(=O)[C@H](CC(=O)O)NC(=O)[C@H](CO)NC(=O)[C@@H](N)Cc1c[nH]cn1)C(C)C)[C@@H](C)O)[C@@H](C)O)C(C)C)C(=O)N[C@@H](CC(C)C)C(=O)N[C@@H](CC(N)=O)C(N)=O [VIP, Vasoactive intestinal polypeptide]
N/No, N417 [1]: 1.08
colony formation of lung cancer cells in vitro (lung cancer cells): little effect
N/No, NCI-H720 [2]: 1.37
adenylate cyclase activity [3]: markedly stimulates
N/No (colony fraction) ([4]; 1 nM): 1.00
N/No (colony fraction) ([4]; 10 nM): 1.00
N/No (colony fraction) ([4]; 100 nM): 1.27
N/No (colony fraction) ([4]; 1000 nM): 1.38
inhibition of specific binding of 125I-VIP to VIP receptors (VIP receptors; 1 nM unlabeled peptide): Little specific binding
inhibition of specific binding of 125I-VIP to VIP receptors (VIP receptors; 1000 nM unlabeled peptide): almost all specific binding was inhibited
IC50 (VIP receptors; 3 experiments, read-out: IC50 (concentration causing 50% inhibition) of specific binding of 125I-labeled VIP): ~10 nM
